No constants are given. Whether binding was seen depends on the method and setting. In cells and extracts the contact can be indirect. A result given as binding can be weak or reduced; the word gives no strength. Where a sequence is shown, tags or fusion partners need not be part of it.
Molecular target: T1, C-terminal FLAG-tagged AMBP (alpha-1-microglobulin/bikunin precursor) (UniProt P02760)
T1 sequence: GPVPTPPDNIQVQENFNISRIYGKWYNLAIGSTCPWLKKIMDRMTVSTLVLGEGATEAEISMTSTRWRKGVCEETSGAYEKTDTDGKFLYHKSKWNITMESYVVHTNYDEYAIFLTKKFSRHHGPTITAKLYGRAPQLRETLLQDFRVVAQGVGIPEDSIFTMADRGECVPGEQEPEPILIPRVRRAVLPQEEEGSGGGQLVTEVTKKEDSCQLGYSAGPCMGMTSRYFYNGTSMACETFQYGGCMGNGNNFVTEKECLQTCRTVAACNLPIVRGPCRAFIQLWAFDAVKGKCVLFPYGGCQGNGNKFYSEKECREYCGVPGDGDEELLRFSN
Assay: co-IP; HEK293T co-transfected with AMBP-Flag and full-length or truncated FHL3-HA plasmids for 48 h; lysates precipitated with Flag antibodies; immunoblot with HA antibodies

Chains of the proteins cited; added tags and fusions are not shown. Lines headed by an entry give the natural chain unless they say otherwise; changes in a name come on top.
UniProt Q13643: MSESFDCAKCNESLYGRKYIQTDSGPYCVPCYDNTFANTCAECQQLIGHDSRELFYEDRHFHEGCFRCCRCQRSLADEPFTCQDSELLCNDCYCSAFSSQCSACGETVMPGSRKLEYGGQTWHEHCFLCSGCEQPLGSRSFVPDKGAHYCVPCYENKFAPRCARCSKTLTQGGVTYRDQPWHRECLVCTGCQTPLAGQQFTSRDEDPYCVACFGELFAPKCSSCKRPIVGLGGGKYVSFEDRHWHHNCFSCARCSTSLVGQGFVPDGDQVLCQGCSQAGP

Row | binding | Substance
1 | binds | FHL3-HA lacking the LIM4 domain (from UniProt Q13643) (domain or fragment)
2 | binds | FHL3-HA lacking the LIM2 domain (from UniProt Q13643) (domain or fragment)

More lines, now with the values behind:

Row | Substance | binding
3 | FHL3-HA lacking the LIM3 domain (from UniProt Q13643) (domain or fragment) | binds
4 | FHL3-HA lacking the ZF domain (from UniProt Q13643) (domain or fragment) | no binding
5 | FHL3-HA lacking the LIM1 domain (from UniProt Q13643) (domain or fragment) | binds

From article PMC11984401
